Data as given in PubChem BioAssay AID1259254 (NCATS, 2017)

Test: 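Finding genes that stop cells copying their DNA twice in one cycle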 (primary screen)
Cell system: human HCT116 colorectal cancer cells
Reagents: single siRNA against human genes
Duration: 3 days
Detection: 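Nuclei stained with Hoechst and imaged; cell-cycle phase assigned by DNA content; G2 share scaled per plate, non-targeting siRNA 0%, GMNN siRNA 100%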
Direction: G2 robust z-score and G2 cells, % of GMNN control: higher = more G2 cells, more excess DNA replication; raw share of cells in G2: higher = larger share of cells with G2 DNA content
Active means: 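Active siRNAs have a G2 robust z of 5 or more median absolute deviations over the median, which in these data means about 38% or higher of GMNN control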
Shown is an unselected part of about 59,000 reagents tested. Over the whole deposit, about 1,550 (2.6%) got an active call. 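G2 share is only a proxy for re-replication; each gene was hit by three separate siRNAs, and active genes were retested.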 Raw values vary from plate to plate and are shown uncorrected. Unmarked entries are inactive. The numbers tell different reagents against one gene apart. No sequences are given here. The record does not give: the amount of reagent.

no.	gene	reagent	G2 robust z-score	G2 cells, % of GMNN control	raw share of cells in G2 (%)
1	APOC4 (GeneID 346)	1	4.4	33.9	21.2
2	APOC4 (GeneID 346)	2	-0.38	0.293	4.19
3	APOC4 (GeneID 346)	3	-0.268	1.08	3.95
4	ZNF76 (GeneID 7629)	1	-1.04	-4.37	3.75
5	ZNF76 (GeneID 7629)	2	3.4	26.9	13.3
6	ZNF76 (GeneID 7629)	3	0.744	8.2	7.32
7	RHBDL2 (GeneID 54933)	1	0.63	7.4	8.14
8	RHBDL2 (GeneID 54933)	2	2.03	17.3	11
9	RHBDL2 (GeneID 54933)	3	0.179	4.23	5.49
10	PRDM1 (GeneID 639)	1	0.501	6.49	6.93
11	PRDM1 (GeneID 639)	2	-0.285	0.961	5.42
12	PRDM1 (GeneID 639)	3	0.644	7.5	6.78
13	ADNP2 (GeneID 22850)	1	-0.855	-3.05	3.79
14	ADNP2 (GeneID 22850)	2	-0.804	-2.69	3.03
15	ADNP2 (GeneID 22850)	3	-0.49	-0.482	2.99
16	BNIP3 (GeneID 664)	1	0.599	7.18	8.67
17	BNIP3 (GeneID 664)	2	-0.402	0.139	4.14
18	BNIP3 (GeneID 664)	3	-0.261	1.13	3.97
19	COL19A1 (GeneID 1310)	1	-0.0522	2.6	6.52
20	COL19A1 (GeneID 1310)	2	-0.745	-2.27	3.25
21	COL19A1 (GeneID 1310)	3	-0.911	-3.44	2.17
22	GOLGB1 (GeneID 2804)	1	-0.736	-2.21	2.87
23	GOLGB1 (GeneID 2804)	2	-0.144	1.95	6
24	GOLGB1 (GeneID 2804)	3	0.117	3.79	6.61

The list goes on (7 carried over from the part before).
no.	gene	reagent	G2 robust z-score	G2 cells, % of GMNN control	raw share of cells in G2 (%)
18	BNIP3 (GeneID 664)	3	-0.261	1.13	3.97
19	COL19A1 (GeneID 1310)	1	-0.0522	2.6	6.52
20	COL19A1 (GeneID 1310)	2	-0.745	-2.27	3.25
21	COL19A1 (GeneID 1310)	3	-0.911	-3.44	2.17
22	GOLGB1 (GeneID 2804)	1	-0.736	-2.21	2.87
23	GOLGB1 (GeneID 2804)	2	-0.144	1.95	6
24	GOLGB1 (GeneID 2804)	3	0.117	3.79	6.61
25	CES5A (GeneID 221223)	1	-0.808	-2.72	3.56
26	CES5A (GeneID 221223)	2	-1.51	-7.64	2.31
27	CES5A (GeneID 221223)	3	0.249	4.72	6.43
28	HEMK2 (GeneID 29104)	1	4.11	31.9	20.6
29	HEMK2 (GeneID 29104)	2	6.92 (active)	51.7	21.3
30	HEMK2 (GeneID 29104)	3	-0.194	1.6	4.51
31	RPL18A (GeneID 6142)	1	1.71	15	11.3
32	RPL18A (GeneID 6142)	2	5.64 (active)	42.6	21.1
33	RPL18A (GeneID 6142)	3	4.53	34.9	16
34	CLPS (GeneID 1208)	1	1.29	12.1	8.25
35	CLPS (GeneID 1208)	2	1.91	16.4	11
36	CLPS (GeneID 1208)	3	-0.229	1.36	5.45
37	REC8 (GeneID 9985)	1	0.448	6.12	8.1
38	REC8 (GeneID 9985)	2	-0.586	-1.15	3.46
39	REC8 (GeneID 9985)	3	0.957	9.7	6.94
40	DGCR2 (GeneID 9993)	1	-0.938	-3.63	3.69
41	DGCR2 (GeneID 9993)	2	-0.502	-0.565	3.71
42	DGCR2 (GeneID 9993)	3	0.00782	3.02	4.51
43	ICAM1 (GeneID 3383)	1	0.0659	3.43	5.46
44	ICAM1 (GeneID 3383)	2	1.83	15.9	10.8
45	ICAM1 (GeneID 3383)	3	0.402	5.8	7.89
46	YIPF4 (GeneID 84272)	1	0.862	9.03	7.11
47	YIPF4 (GeneID 84272)	2	-0.354	0.477	3.6
48	YIPF4 (GeneID 84272)	3	-0.203	1.54	2.87
49	ID4 (GeneID 3400)	1	-0.358	0.448	5.51
50	ID4 (GeneID 3400)	2	0.326	5.26	6.01
51	ID4 (GeneID 3400)	3	-0.47	-0.342	3.39
52	CCM2 (GeneID 83605)	1	-0.328	0.656	4.33
53	CCM2 (GeneID 83605)	2	1.36	12.5	7.17
54	CCM2 (GeneID 83605)	3	-0.641	-1.55	1.94
55	ZCWPW2 (GeneID 152098)	1	2.55	20.9	10.8
56	ZCWPW2 (GeneID 152098)	2	-0.953	-3.74	1.76
57	ZCWPW2 (GeneID 152098)	3	0.592	7.13	5.56
58	ACTL10 (GeneID 170487)	1	-0.782	-2.53	2.11
59	ACTL10 (GeneID 170487)	2	-0.824	-2.83	1.87
60	ACTL10 (GeneID 170487)	3	-0.628	-1.45	3.08
61	LYST (GeneID 1130)	1	-0.946	-3.69	3.57
62	LYST (GeneID 1130)	2	1.27	11.9	8.45
63	LYST (GeneID 1130)	3	0.172	4.18	5.16
64	HOXA2 (GeneID 3199)	1	3.7	29	16.7
65	HOXA2 (GeneID 3199)	2	0.958	9.7	7.76
66	HOXA2 (GeneID 3199)	3	-0.606	-1.3	4.57
67	SMG5 (GeneID 23381)	1	-0.662	-1.69	2.71
68	SMG5 (GeneID 23381)	2	-0.571	-1.05	4.02
69	SMG5 (GeneID 23381)	3	-0.0848	2.37	4.97
